The source of these data is publication PMC6018924, “Brassinosteroids regulate pavement cell growth by mediating BIN2-induced microtubule stabilization” (Journal of Experimental Botany, 2018).

Chains of the proteins cited; added tags and fusions are not shown.
UniProt P29511: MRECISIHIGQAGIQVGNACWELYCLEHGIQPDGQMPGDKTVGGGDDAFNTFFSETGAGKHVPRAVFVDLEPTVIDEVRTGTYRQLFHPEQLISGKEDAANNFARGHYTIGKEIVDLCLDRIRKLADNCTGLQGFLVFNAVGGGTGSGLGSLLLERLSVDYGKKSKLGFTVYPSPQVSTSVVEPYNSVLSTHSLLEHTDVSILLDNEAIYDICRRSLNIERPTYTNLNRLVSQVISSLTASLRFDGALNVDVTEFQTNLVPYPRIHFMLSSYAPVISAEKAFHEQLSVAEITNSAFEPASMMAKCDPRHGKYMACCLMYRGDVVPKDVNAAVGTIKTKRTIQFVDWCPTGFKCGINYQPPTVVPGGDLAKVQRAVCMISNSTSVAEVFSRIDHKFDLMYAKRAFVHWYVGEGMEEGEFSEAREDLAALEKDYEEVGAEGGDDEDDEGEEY

The target in assay [1] is T1, GST–BIN2 (BRASSINOSTEROID …2) (Arabidopsis) (UniProt Q39011).
T1 sequence: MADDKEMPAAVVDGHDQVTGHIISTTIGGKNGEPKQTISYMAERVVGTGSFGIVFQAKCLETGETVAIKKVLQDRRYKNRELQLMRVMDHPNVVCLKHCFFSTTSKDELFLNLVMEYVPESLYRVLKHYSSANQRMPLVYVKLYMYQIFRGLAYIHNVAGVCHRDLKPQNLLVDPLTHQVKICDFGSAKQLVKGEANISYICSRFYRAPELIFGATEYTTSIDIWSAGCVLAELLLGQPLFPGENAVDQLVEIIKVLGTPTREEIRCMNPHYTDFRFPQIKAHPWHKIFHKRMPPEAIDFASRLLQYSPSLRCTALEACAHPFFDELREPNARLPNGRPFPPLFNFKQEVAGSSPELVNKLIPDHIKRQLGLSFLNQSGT
Kind of assay: pull-down; semi-in vivo: GST fusions immobilized on glutathione resin; supernatant of total protein extract of plants overexpressing TUA6-GFP incubated with the beads 1 h at 4 °C; western blot with anti-α-tubulin antibody; only the target purified. (In general: Immunoblotting shows a protein as a band on a membrane.)

The target of assay [2] is T2, GST–BIN2^K69R (kinase-dead form of BIN2) (Arabidopsis) (UniProt Q39011).
T2 sequence: T1 sequence with K69R
Described as above.

Positions count from the first letter of the chain named. Results are given in words; binding and its absence hold for the method and conditions named. Binding seen in cells or lysates may run through a third protein. Some binding calls cover weakened binding; strength is not graded here. Tags and fused reporters may be left off the sequences shown.

In the case of TUA6-GFP (from UniProt P29511 1-450), the binding entry in assay [1] and in assay [2] was “binds” in each case.
